According to paper PMC5658362 (Scientific Reports, 2017):
Where a name gives a salt, the structure may show the parent alone.

Test: pH of BB10 medium upon treatment
Assay type: physicochemical

SMILES	decrease of BB10 pH (10 mM HCl)	pH difference between highest and lowest amount (10 mM vs 0.1 mM sodium L-lactate in BB10)	decrease of BB10 pH (any concentration of sodium L-lactate)
Cl [HCl]	more than 1.5 pH units	–	–
CC(O)C(=O)O (stereo not drawn) [lactate]	–	~ 0.01	less than 0.05 pH units
